PubChem BioAssay AID1224826, NIAID, 2016
Assay: 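Regulators of Tlr4 signalling leading to Tnf-alpha expression in macrophages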 (primary screen). System: RAW264.7 G9 macrophages from mouse bearing reporters for p65 (GFP) and the Tnf promoter (mCherry). Knock-down reagent: siRNA pool against mouse genes, 100 nM. Time to read-out: 16 h of LPS stimulation, after 2 days of siRNA transfection. Conditions: bacterial lipopolysaccharide (Salmonella minnesota R595), 10 ng/ml. Measured: 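Imaged Tnf reporter mCherry in nuclei, minus background, normalised per plate to the median and expressed as robust z-scores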. Reading the numbers: Tnf reporter robust z-score: higher = stronger Tnf promoter reporter signal after LPS; Tnf reporter intensity: higher = stronger Tnf promoter reporter signal. Hit rule: 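a well counts as active at a score of -1.3 or below (Tlr4 knock-down control median) or above 3 (raised signal); controls and wells holding fewer than 50 cells are excluded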. Calls: active = Tnf reporter clearly lowered or raised; inactive = no clear change in Tnf reporter.
This is an unselected part of about 17,000 deposited reagents. About 1,110 of them (6.6%) were called active. 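Active means lowered or raised reporter signal; replicate intensities are raw and not normalised per plate.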 Reagents against one gene are numbered here. Reagent sequences are not shown.

gene knocked down	reagent no.	Tnf reporter robust z-score	fewer than 50 cells in well	Tnf reporter intensity, replicate 1	Tnf reporter intensity, replicate 2	call
Slc36a2	1		fewer than 50 cells per well; well left out of calls	0	0	inactive
Osbpl1a (oxysterol binding protein-like 1A)	1	0.1	enough cells in well	239	196	inactive
Osbpl1a (oxysterol binding protein-like 1A)	2	-0.79	enough cells in well	176	78.3	inactive
Or1j10 (olfactory receptor family 1 subfamily J member 10)	1	0	enough cells in well	208	102	inactive
Extl3 (exostosin-like glycosyltransferase 3)	1	0.59	enough cells in well	286	263	inactive
Slc5a1	1	1.14	enough cells in well	283	210	inactive
Itga2b (integrin alpha 2b)	1	0.44	enough cells in well	269	177	inactive
Or2a7 (olfactory receptor family 2 subfamily A member 7)	1	1.55	enough cells in well	370	147	inactive
Zdhhc19 (zinc finger, DHHC domain containing 19)	1	-0.26	enough cells in well	115	112	inactive
H2-M10.3 (histocompatibility 2, M region locus 10.3)	1	-0.29	enough cells in well	213	155	inactive
Stx19 (syntaxin 19)	1	3.87	enough cells in well	411	335	active

2 of these entries, set out differently.
| gene knocked down | reagent no. | Tnf reporter robust z-score | fewer than 50 cells in well | Tnf reporter intensity, replicate 1 | Tnf reporter intensity, replicate 2 | call |
| --- | --- | --- | --- | --- | --- | --- |
| Slc36a2 | 1 | – | fewer than 50 cells per well; well left out of calls | 0 | 0 | inactive |
| Osbpl1a (oxysterol binding protein-like 1A) | 1 | 0.1 | enough cells in well | 239 | 196 | inactive |

The results go on:
gene knocked down	reagent no.	Tnf reporter robust z-score	fewer than 50 cells in well	Tnf reporter intensity, replicate 1	Tnf reporter intensity, replicate 2	call
Foxn3 (forkhead box N3)	1	0.17	enough cells in well	154	170	inactive
Speer3 (spermatogenesis associated glutamate (E)-rich protein 3)	1	1.54	enough cells in well	155	148	inactive
Rexo2 (RNA exonuclease 2)	1		fewer than 50 cells per well; well left out of calls	92.4	45.9	inactive
Slc30a1	1		fewer than 50 cells per well; well left out of calls	44.5	64.4	inactive
Fgfr3 (fibroblast growth factor receptor 3)	1	0.1	enough cells in well	194	171	inactive
Yif1a (Yip1 interacting factor homolog A (S. cerevisiae))	1	0.39	enough cells in well	116	169	inactive
Zfp449 (zinc finger protein 449)	1	-0.44	enough cells in well	159	154	inactive
Arhgap44 (Rho GTPase activating protein 44)	1	-0.4	enough cells in well	150	141	inactive
Gja4 (gap junction protein, alpha 4)	1	-0.21	enough cells in well	241	215	inactive
Trap1 (TNF receptor-associated protein 1)	1	-0.01	enough cells in well	164	150	inactive
Cspp1 (centrosome and spindle pole associated protein 1)	1	-0.19	enough cells in well	195	74	inactive
Gk (glycerol kinase)	1	-1.22	enough cells in well	124	85.1	inactive
Adipoq (adiponectin, C1Q and collagen domain containing)	1	2.9	enough cells in well	378	399	inactive
